Assay results as given in PubChem BioAssay AID192 (DTP/NCI, 2004).
The list does not hold the whole screen: it gathers tests that were run many times, whatever their T/C, doses with no T/C, and many T/C values between a quarter and a half above the control. Further doses and runs are listed elsewhere. T/C gives the treated animals as a percentage of the vehicle group. Some doses have a count of surviving animals in place of a T/C: the source files T/C as zero there, which appears to mark a toxic dose or a test without result, not a measured value. Some doses without a T/C left all or most animals alive at the check, yet need not have been tolerated: survival well below the control is almost never listed, so the zero probably covers shortened survival too. Survivors were counted at the toxicity check, usually on the fifth day, unless a day is given; later deaths do not show. Schedule codes are those of the source, read here as Q, the interval in days (D) or hours (H), X, the number of doses. Signs of the kind (2×) say how often a value occurs here. Some doses were run more than once; their values stand side by side, smallest first. Where survival is the endpoint, this PubChem deposit counts one and a half times the control or more as active, and values a quarter to a half above the control carry no call in these data; other NCI protocols may use other cut-offs. Some T/C values are followed by the survivors on the day toxicity was checked, most often the fifth; without a count, all were alive then. Numbered stars: 1 amine (or outer) side, 2 acyl side, 3 side chain; on linkers, the order of the positions; unused ones are H or OH. Square brackets hold non-standard residues; d marks the D form. Peptide text beside a SMILES is read from it. * marks the point of attachment. X6 = CCC(=O)CC1CC(C)CC(C(=O)[*:2])N1[*:1]; X5 = CCCCCCCCC(C)C(=O)*; Aib = CC(C)(N)C(=O)O; X7 = CC(CN(C)CCO)N*

Tested on: BDF1 mice, B16 melanoma ip, median survival T/C
Assay: NCI In Vivo Anticancer Drug Screen. Data for tumor model B16 Melanoma (intraperitoneal) in B6D2F1 (BDF1) mice
Settings: T/C endpoint: median survival time, higher T/C = longer survival
Outline: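 Tumor-bearing mice received test compound or vehicle. Survival or tumor size was then measured in both groups. The treated-group figure was divided by the control-group figure.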

[1] = dose: 100.0 mg/kg/injection, schedule: Q01DX009 (ip), vehicle: saline with Tween-80
[2] = dose: 200.0 mg/kg/injection, schedule: Q01DX009 (ip), vehicle: saline with Tween-80
[3] = dose: 400.0 mg/kg/injection, schedule: Q01DX009 (ip), vehicle: saline with Tween-80
[4] = dose: 25.0 mg/kg/injection, schedule: Q01DX009 (ip), vehicle: saline
[5] = dose: 100.0 mg/kg/injection, schedule: Q01DX009 (ip), vehicle: saline
[6] = dose: 200.0 mg/kg/injection, schedule: Q01DX009 (ip), vehicle: saline
[7] = dose: 400.0 mg/kg/injection, schedule: Q01DX009 (ip), vehicle: saline
[8] = dose: 25.0 mg/kg/injection, schedule: Q01DX009 (ip), vehicle: saline with Tween-80
[9] = dose: 50.0 mg/kg/injection, schedule: Q01DX009 (ip), vehicle: saline with Tween-80
[10] = dose: 25.0 mg/kg/injection, schedule: Q01DX009 (ip), vehicle: water

Cc1c2cc[n+](C)c(C)c2cc2c1[nH]c1ccc(O)cc12
T/C (dose: 5.0 mg/kg/injection, schedule: Q04DX003 (ip), vehicle: water, evaluated on day 45): 131 % of control
T/C (dose: 5.0 mg/kg/injection, schedule: Q04DX003 (ip), vehicle: water, evaluated on day 60): 126 % of control
T/C (dose: 10.0 mg/kg/injection, schedule: Q04DX003 (ip), vehicle: water): 131 % of control
survivor count (dose: 20.0 mg/kg/injection, schedule: Q04DX003 (ip), vehicle: water): 10 of 10 (2×)
survivor count (dose: 40.0 mg/kg/injection, schedule: Q04DX003 (ip), vehicle: water): 10 of 10

CS(=O)(=O)c1cnc2ccccc2n1
survivor count [1]: 10 of 10
survivor count [2]: 8 of 10
survivor count [3]: 5 of 10

C[C@@]12C(=O)OC(=O)[C@]1(C)[C@H]1CC[C@@H]2O1
survivor count (dose: 1.0 mg/kg/injection, schedule: Q01DX009 (ip), vehicle: acetone): 4 of 10
survivor count (dose: 2.0 mg/kg/injection, schedule: Q01DX009 (ip), vehicle: acetone): 0 of 10

O=C1C=C(c2ccccc2)C(=O)C=C1c1ccccc1
survivor count (dose: 50.0 mg/kg/injection, schedule: Q04DX003 (ip), vehicle: gum acacia): 10 of 10
survivor count (dose: 100.0 mg/kg/injection, schedule: Q04DX003 (ip), vehicle: gum acacia): 10 of 10

C[N+](C)(C)c1ncnc2c1ncn2C1CCCO1 (configuration not stated)
T/C (dose: 12.5 mg/kg/injection, schedule: Q01DX009 (ip), vehicle: saline): 135 % of control
T/C [4]: 132 % of control
T/C (dose: 50.0 mg/kg/injection, schedule: Q01DX009 (ip), vehicle: saline): 131 % of control
T/C [5]: 140 % of control
survivor count [6]: 5 of 10 and 10 of 10
survivor count [7]: 0 of 10

CCCCCCCCC(C)C(=O)N1CCCC1C(=O)N1C(CC(=O)CC)CC(C)CC1C(=O)NC(C)C(=O)NC(C)(C)C(=O)NC(C)(C)C(=O)NC(C(=O)NC(C)C(=O)NC(C)(C)C(=O)NC(C)(C)C(=O)NC(C)CN(C)CCO)C(C)CC (configuration not stated) (X5-P[X6]A[Aib][Aib]IA[Aib][Aib]-X7; configuration not given here)
survivor count (dose: 5.0 mg/kg/injection, schedule: Q01DX009 (ip), vehicle: Klucel (hydroxypropylcellulose) (HPC)): 0 of 10

CCC(C)NC(=O)Nc1cccc(Cl)c1C (configuration not stated)
survivor count [3]: 9 of 10

CC1=CCC=C(CNc2ncnc3nc[nH]c23)C1
survivor count (dose: 12.5 mg/kg/injection, schedule: Q01DX009 (ip), vehicle: saline with Tween-80): 10 of 10
survivor count [8]: 9 of 10

COc1ccc(Nc2c3ccccc3nc3ccccc23)cc1
T/C [8]: 125 % of control
T/C [9]: 126 and 129 % of control [9 of 10 alive]
survivor count [1]: 9 of 10
survivor count [2]: 2 of 10
survivor count [3]: 0 of 10

CCCCCCCCCCCCCCCC(=O)N(C(C)CCCN(CC)CC)C(C)CCCN(CC)CC (configuration not stated)
survivor count (dose: 6.25 mg/kg/injection, schedule: Q01DX009 (ip), vehicle: other): 10 of 10
survivor count (dose: 25.0 mg/kg/injection, schedule: Q01DX009 (ip), vehicle: other): 10 of 10

CC1(C#N)CCc2c(ccc3ccccc23)C1=O (configuration not stated)
survivor count (dose: 200.0 mg/kg/injection, schedule: Q04DX003 (ip), vehicle: other): 9 of 10
survivor count (dose: 200.0 mg/kg/injection, schedule: Q04DX003 (ip), vehicle: saline with Tween-80): 10 of 10

Nc1cccs1
survivor count [5]: 10 of 10
survivor count [6]: 3 of 10
survivor count [7]: 0 of 10

Oc1c(Cl)cc(Cl)cc1/C=N/NC(=S)Nc1cc(C(F)(F)F)cc(C(F)(F)F)c1
survivor count (dose: 6.25 mg/kg/injection, schedule: Q01DX009 (ip), vehicle: olive oil, sesame oil, peanut oil): 10 of 10 (2×)
survivor count (dose: 12.5 mg/kg/injection, schedule: Q01DX009 (ip), vehicle: olive oil, sesame oil, peanut oil): 10 of 10 (2×)
survivor count (dose: 25.0 mg/kg/injection, schedule: Q01DX009 (ip), vehicle: olive oil, sesame oil, peanut oil): 10 of 10 (2×)
survivor count (dose: 50.0 mg/kg/injection, schedule: Q01DX009 (ip), vehicle: olive oil, sesame oil, peanut oil): 9 of 10
survivor count (dose: 100.0 mg/kg/injection, schedule: Q01DX009 (ip), vehicle: olive oil, sesame oil, peanut oil): 10 of 10 (2×)
survivor count (dose: 200.0 mg/kg/injection, schedule: Q01DX009 (ip), vehicle: olive oil, sesame oil, peanut oil): 8 of 10

O=c1cc(-c2ccccc2)[nH]c(=S)[nH]1
T/C [3]: 125 % of control

C[n+]1c(-c2cccc(OCCCCCCCOc3cccc(-c4c5cc(N)ccc5c5ccc(N)cc5[n+]4C)c3)c2)c2cc(N)ccc2c2ccc(N)cc21
T/C (dose: 0.08 mg/kg/injection, schedule: Q01DX009 (ip), vehicle: water): 148 % of control
T/C (dose: 0.16 mg/kg/injection, schedule: Q01DX009 (ip), vehicle: water): 138 % of control
survivor count (dose: 0.32 mg/kg/injection, schedule: Q01DX009 (ip), vehicle: water): 10 of 10

COc1c(Br)c2c(c(OC)c1OC)-c1ccc(OC)c(=O)cc1C(NC(C)=O)CC2 (configuration not stated)
survivor count (dose: 6.0 mg/kg/injection, schedule: Q01DX009 (ip), vehicle: Klucel (hydroxypropylcellulose) (HPC)): 10 of 10

CN(C)N=Nc1ccc(NC(N)=O)cc1
survivor count (dose: 75.0 mg/kg/injection, schedule: Q01DX009 (ip), vehicle: Klucel (hydroxypropylcellulose) (HPC)): 0 of 10
survivor count (dose: 150.0 mg/kg/injection, schedule: Q01DX009 (ip), vehicle: Klucel (hydroxypropylcellulose) (HPC)): 2 of 10
survivor count (dose: 300.0 mg/kg/injection, schedule: Q01DX009 (ip), vehicle: Klucel (hydroxypropylcellulose) (HPC)): 0 of 10

NC(=S)Nc1cccc2ccccc12
survivor count [9]: 6 of 10
survivor count (dose: 75.0 mg/kg/injection, schedule: Q01DX009 (ip), vehicle: saline with Tween-80): 2 of 10

O=[N+]([O-])c1ccc(N2CCC(CCCC3CCN(c4ccc([N+](=O)[O-])cc4[N+](=O)[O-])CC3)CC2)c([N+](=O)[O-])c1
survivor count (dose: 50.0 mg/kg/injection, schedule: Q01DX009 (ip), vehicle: Klucel (hydroxypropylcellulose) (HPC)): 9 of 10

CC1=C(C)C(=O)O[C@@H]([C@](C)(O)[C@]2(O)CC[C@@]3(O)[C@@H]4C[C@H]5O[C@]56[C@@H](O)C=CC(=O)[C@]6(C)[C@H]4CC[C@]23C)C1
T/C (dose: 2.0 mg/kg/injection, schedule: Q01DX009 (ip), vehicle: saline + alcohol): 133 % of control
T/C (dose: 4.0 mg/kg/injection, schedule: Q01DX005 (ip), vehicle: saline + alcohol): 129 % of control
T/C (dose: 4.0 mg/kg/injection, schedule: Q01DX009 (ip), vehicle: saline + alcohol): 136 % of control
T/C (dose: 8.0 mg/kg/injection, schedule: Q01DX005 (ip), vehicle: saline + alcohol): 135 % of control
survivor count (dose: 8.0 mg/kg/injection, schedule: Q01DX009 (ip), vehicle: saline + alcohol): 10 of 10
T/C (dose: 16.0 mg/kg/injection, schedule: Q01DX001 (ip), vehicle: saline + alcohol): 129 % of control
survivor count (dose: 16.0 mg/kg/injection, schedule: Q01DX009 (ip), vehicle: saline + alcohol): 10 of 10
survivor count (dose: 32.0 mg/kg/injection, schedule: Q01DX005 (ip), vehicle: saline + alcohol): 9 of 10
survivor count (dose: 32.0 mg/kg/injection, schedule: Q01DX009 (ip), vehicle: saline + alcohol): 10 of 10
survivor count (dose: 64.0 mg/kg/injection, schedule: Q01DX001 (ip), vehicle: saline + alcohol): 6 of 10

Nc1n[n+](-c2ccccc2)no1
T/C (dose: 12.5 mg/kg/injection, schedule: Q01DX009 (ip), vehicle: water): 127 % of control
T/C [10]: 137 % of control [9 of 10 alive]
survivor count [10]: 9 of 10
survivor count (dose: 50.0 mg/kg/injection, schedule: Q01DX009 (ip), vehicle: water): 7 of 10 and 10 of 10

CN1CCN(CCC=C2c3ccccc3Sc3ccc(S(=O)(=O)N(C)C)cc32)CC1
survivor count (dose: 6.25 mg/kg/injection, schedule: Q01DX009 (ip), vehicle: saline): 10 of 10

CC(=O)O[C@@]1(C)[C@@H](C)C(=O)O[C@@H]2CCN3CC=C(COC(=O)[C@]1(C)O)[C@H]23
T/C [4]: 133 % of control
